Assay results taken from the supplement of paper PMC10849652.
The list shows a part of the results.

Amino acid sequences for entries named in this document (tags omitted). A change or cut given only in a name is not applied to a line headed by its entry.
UniProt Q9Y2Y6: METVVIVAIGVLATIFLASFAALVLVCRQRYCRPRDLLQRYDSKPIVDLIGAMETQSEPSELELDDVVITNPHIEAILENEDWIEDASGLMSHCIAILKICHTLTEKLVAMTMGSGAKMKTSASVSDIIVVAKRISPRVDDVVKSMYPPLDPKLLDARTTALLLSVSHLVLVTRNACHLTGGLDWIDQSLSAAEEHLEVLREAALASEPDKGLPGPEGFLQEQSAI
UniProt Q5SWH9: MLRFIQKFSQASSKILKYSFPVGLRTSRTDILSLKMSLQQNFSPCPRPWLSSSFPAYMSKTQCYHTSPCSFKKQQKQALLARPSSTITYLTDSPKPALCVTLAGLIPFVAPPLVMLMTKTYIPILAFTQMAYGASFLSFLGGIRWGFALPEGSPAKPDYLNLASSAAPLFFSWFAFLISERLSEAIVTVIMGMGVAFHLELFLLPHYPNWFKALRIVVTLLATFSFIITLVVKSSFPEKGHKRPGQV
UniProt Q9NX78: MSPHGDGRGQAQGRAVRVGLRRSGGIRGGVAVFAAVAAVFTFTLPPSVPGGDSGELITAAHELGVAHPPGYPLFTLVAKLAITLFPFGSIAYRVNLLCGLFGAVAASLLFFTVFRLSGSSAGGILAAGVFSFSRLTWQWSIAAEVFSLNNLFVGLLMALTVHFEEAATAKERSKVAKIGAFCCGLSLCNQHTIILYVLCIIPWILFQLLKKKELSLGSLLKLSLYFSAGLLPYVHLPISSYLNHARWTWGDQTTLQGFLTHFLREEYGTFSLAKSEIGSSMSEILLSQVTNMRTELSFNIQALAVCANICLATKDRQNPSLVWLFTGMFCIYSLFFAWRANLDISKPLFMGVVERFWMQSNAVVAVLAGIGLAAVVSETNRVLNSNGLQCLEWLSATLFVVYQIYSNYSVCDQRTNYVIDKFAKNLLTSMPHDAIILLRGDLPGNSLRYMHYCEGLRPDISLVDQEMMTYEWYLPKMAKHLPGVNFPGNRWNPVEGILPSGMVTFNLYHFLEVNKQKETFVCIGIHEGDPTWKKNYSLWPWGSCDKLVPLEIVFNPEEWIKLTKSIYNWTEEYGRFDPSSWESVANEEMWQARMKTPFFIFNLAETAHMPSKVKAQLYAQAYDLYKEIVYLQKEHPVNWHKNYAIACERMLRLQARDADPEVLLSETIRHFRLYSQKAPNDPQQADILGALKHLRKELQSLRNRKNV
UniProt Q9H6X4: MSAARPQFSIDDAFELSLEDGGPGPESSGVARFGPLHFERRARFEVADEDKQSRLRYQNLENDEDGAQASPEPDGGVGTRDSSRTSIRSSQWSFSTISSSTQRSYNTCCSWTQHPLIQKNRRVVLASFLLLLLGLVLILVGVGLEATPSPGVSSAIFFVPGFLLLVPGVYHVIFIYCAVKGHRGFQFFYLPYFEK
UniProt Q96DC7: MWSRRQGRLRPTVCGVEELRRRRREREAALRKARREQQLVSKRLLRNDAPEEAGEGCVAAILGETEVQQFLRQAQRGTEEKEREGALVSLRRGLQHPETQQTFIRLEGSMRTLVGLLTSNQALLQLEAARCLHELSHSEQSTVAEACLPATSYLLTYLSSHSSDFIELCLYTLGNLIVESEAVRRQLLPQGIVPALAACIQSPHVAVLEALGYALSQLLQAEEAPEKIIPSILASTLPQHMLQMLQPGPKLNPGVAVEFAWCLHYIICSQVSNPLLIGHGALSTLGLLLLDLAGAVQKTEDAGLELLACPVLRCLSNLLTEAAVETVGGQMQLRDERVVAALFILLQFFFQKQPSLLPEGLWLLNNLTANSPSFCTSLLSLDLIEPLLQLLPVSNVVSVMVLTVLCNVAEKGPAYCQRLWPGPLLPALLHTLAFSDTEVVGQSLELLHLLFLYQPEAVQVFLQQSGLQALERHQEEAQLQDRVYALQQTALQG
UniProt Q9ULS5: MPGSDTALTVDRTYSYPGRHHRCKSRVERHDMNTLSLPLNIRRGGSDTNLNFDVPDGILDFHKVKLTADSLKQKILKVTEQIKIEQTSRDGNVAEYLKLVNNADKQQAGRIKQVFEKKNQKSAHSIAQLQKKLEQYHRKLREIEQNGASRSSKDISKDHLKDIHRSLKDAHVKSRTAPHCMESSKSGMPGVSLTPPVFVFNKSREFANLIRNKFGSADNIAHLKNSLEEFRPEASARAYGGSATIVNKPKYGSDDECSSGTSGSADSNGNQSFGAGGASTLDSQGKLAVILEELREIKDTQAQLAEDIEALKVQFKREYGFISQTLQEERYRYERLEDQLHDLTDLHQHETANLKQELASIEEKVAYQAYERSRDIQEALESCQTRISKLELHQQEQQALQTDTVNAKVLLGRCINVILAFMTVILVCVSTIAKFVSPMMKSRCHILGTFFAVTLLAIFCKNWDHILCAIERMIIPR
UniProt Q9BSE2: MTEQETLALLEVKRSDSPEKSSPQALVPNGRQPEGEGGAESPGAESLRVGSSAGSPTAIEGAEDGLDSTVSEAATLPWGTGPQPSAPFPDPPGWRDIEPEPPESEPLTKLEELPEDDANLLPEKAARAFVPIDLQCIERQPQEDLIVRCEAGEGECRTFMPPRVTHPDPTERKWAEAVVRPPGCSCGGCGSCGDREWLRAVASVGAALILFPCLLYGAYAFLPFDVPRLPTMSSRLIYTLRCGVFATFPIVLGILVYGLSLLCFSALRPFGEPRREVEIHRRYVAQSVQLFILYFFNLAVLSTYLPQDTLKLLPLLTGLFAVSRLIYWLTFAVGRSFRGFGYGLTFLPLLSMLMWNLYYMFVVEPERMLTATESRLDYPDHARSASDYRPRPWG
UniProt Q5BJD5: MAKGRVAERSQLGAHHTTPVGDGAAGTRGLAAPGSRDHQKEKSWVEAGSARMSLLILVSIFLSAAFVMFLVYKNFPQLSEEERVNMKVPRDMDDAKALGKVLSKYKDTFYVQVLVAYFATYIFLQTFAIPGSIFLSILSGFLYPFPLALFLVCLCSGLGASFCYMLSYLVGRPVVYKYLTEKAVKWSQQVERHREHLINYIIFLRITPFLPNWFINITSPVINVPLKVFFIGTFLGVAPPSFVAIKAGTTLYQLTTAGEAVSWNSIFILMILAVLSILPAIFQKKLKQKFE
UniProt Q8NE00: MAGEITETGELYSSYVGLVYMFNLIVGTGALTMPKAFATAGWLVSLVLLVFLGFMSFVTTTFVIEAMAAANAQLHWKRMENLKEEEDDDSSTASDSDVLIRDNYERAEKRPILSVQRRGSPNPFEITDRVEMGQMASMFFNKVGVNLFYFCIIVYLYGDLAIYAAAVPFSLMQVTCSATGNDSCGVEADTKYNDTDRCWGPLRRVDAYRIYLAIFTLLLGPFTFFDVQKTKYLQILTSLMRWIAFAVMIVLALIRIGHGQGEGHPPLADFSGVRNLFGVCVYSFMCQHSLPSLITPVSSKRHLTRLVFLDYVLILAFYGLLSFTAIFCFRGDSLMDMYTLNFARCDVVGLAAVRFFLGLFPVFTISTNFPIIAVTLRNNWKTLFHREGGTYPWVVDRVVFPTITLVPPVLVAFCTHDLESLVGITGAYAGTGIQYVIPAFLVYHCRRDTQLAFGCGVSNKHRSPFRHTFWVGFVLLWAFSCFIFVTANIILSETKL
UniProt Q92545: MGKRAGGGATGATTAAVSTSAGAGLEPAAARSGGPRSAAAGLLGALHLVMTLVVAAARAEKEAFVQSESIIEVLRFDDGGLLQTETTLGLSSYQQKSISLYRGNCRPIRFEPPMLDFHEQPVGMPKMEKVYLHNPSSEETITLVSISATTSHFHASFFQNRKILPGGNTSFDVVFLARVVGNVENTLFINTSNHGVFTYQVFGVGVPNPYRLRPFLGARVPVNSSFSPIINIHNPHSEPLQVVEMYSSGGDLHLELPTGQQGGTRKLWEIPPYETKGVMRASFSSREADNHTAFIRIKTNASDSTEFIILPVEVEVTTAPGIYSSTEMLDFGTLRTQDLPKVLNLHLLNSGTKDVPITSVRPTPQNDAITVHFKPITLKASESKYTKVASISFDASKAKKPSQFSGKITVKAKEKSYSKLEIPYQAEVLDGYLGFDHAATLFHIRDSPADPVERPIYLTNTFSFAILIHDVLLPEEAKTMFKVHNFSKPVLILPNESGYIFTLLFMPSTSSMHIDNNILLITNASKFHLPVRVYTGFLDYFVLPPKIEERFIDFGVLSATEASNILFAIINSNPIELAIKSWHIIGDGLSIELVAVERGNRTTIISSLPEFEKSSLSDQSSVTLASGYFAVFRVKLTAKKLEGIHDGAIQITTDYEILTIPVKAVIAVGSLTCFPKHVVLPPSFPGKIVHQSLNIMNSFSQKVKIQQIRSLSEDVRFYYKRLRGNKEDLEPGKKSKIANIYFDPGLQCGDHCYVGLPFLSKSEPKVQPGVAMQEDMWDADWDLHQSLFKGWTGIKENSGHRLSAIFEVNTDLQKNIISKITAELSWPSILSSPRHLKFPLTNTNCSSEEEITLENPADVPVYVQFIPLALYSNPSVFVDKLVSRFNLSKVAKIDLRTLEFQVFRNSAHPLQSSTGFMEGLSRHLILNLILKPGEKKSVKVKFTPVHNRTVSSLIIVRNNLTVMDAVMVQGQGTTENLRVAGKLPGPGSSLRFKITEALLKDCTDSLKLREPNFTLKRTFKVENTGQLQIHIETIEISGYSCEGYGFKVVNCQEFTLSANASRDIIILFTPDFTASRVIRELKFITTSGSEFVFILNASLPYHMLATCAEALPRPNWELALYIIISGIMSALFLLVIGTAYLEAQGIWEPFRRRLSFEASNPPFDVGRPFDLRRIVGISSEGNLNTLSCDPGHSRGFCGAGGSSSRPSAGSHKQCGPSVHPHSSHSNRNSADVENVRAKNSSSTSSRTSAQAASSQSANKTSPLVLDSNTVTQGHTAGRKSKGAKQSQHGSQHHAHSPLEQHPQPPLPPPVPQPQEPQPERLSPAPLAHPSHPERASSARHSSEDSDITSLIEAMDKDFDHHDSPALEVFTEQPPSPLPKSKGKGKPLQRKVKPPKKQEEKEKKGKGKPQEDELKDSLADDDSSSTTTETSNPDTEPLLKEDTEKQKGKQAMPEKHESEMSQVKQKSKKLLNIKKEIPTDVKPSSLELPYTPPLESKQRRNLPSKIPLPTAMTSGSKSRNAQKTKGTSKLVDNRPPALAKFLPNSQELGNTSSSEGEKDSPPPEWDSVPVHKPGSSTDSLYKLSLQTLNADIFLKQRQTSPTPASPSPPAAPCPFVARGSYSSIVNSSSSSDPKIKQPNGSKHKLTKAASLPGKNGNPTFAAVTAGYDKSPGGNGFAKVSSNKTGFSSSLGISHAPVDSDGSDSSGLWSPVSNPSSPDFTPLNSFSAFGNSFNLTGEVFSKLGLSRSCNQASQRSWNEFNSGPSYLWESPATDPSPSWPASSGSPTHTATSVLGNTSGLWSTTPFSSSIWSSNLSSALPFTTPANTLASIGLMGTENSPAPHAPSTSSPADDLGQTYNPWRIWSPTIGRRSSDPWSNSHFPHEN
UniProt Q13829: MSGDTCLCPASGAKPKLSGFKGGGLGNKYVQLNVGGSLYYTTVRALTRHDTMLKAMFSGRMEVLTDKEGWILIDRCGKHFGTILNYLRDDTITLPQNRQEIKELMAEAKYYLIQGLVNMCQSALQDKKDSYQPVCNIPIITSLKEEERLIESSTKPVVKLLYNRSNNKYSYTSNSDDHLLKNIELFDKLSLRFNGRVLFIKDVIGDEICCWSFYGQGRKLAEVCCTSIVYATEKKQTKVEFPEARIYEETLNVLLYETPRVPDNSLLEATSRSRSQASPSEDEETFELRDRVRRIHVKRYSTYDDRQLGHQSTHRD
UniProt Q9HCN3: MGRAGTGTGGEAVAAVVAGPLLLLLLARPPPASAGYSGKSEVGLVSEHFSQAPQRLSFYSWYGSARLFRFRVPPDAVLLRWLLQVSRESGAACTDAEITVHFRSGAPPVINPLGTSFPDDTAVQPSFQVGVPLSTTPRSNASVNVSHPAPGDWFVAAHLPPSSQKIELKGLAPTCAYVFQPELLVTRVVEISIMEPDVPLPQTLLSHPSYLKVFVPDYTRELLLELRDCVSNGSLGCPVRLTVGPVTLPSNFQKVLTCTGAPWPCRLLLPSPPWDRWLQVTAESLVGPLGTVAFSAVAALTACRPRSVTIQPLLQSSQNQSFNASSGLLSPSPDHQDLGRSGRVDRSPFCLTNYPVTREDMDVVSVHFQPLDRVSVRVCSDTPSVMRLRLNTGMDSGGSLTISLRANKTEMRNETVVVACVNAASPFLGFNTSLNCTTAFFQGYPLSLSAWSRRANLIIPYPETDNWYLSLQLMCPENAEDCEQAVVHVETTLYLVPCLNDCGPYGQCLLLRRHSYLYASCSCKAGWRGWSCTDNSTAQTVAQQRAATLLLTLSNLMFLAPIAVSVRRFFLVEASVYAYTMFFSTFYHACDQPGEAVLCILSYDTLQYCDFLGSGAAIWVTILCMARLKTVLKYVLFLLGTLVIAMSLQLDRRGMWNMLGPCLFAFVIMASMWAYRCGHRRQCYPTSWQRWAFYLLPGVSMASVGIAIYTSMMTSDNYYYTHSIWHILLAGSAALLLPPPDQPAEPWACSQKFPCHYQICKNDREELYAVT
UniProt P62328: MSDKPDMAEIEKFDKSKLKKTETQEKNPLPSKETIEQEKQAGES

Key:
Test in all cases: log2 fold change, soluble protein after heating vs DMSO (PISA); higher = thermal stabilisation; K562 cells, 10 uM, 30 min; active = over 0.2 and 3.5 SD of the protein, either way, in both replicates (recomputed)
crizotinib = compound: C[C@@H](Oc1cc(-c2cnn(C3CCNCC3)c2)cnc1N)c1c(Cl)ccc(F)c1Cl [crizotinib]
In short: (§1)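 K562 cells at 2×10^6 cells/mL were exposed to 10 μM compound for 30 min, then aliquots were heated for 3 min across 48°C-58°C, pooled, and extracted in PBS containing 0.5% NP-40 at 4°C. The supernatant after 21,000xg for 90 min was taken as soluble protein and measured by TMTpro 16plex LC-MS/MS with channel sums equalised. Thermal stability is reported relative to control samples, with values from duplicates. Fold changes are given on a log2 scale.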

[1] = compound: C[C@H](C1=CC=C(C=C1)C(=O)NC2=C3C=CNC3=NC=C2)N
In short: as §1

duvelisib = compound: C[C@H](Nc1ncnc2nc[nH]c12)c1cc2cccc(Cl)c2c(=O)n1-c1ccccc1 [duvelisib]
In short: as §1

gandotinib = compound: Cc1cc(Nc2cc(CN3CCOCC3)c3nc(C)c(Cc4ccc(Cl)cc4F)n3n2)n[nH]1 [gandotinib]
In short: as §1

tozasertib = compound: Cc1cc(Nc2cc(N3CCN(C)CC3)nc(Sc3ccc(NC(=O)C4CC4)cc3)n2)n[nH]1 [tozasertib]
In short: as §1

[2] = compound: Cc1cc(SCc2sc(-c3ccc(C(F)(F)F)cc3)nc2C)ccc1OCC(=O)O
In short: as §1

doramapimod = compound: Cc1ccc(-n2nc(C(C)(C)C)cc2NC(=O)Nc2ccc(OCCN3CCOCC3)c3ccccc23)cc1 [doramapimod]
In short: as §1

ispinesib = compound: Cc1ccc(C(=O)N(CCCN)[C@@H](c2nc3cc(Cl)ccc3c(=O)n2Cc2ccccc2)C(C)C)cc1 [ispinesib]
In short: as §1

[3] = compound: Cc1cccc(CC(=O)N2CCc3c2ccc(-c2cn(C)c4ncnc(N)c24)c3F)n1
In short: as §1

nilotinib = compound: Cc1cn(-c2cc(NC(=O)c3ccc(C)c(Nc4nccc(-c5cccnc5)n4)c3)cc(C(F)(F)F)c2)cn1 [nilotinib]
In short: as §1

[4] = compound: Cc1nc(Nc2n[nH]c3c2CN(C(=O)N[C@H](CN(C)C)c2ccccc2)C3(C)C)c2sccc2n1
In short: as §1

dasatinib = compound: Cc1nc(Nc2ncc(C(=O)Nc3c(C)cccc3Cl)s2)cc(N2CCN(CCO)CC2)n1 [dasatinib]
In short: as §1

[5] = compound: Cc1ncc(-c2ccnc(Nc3ccc(S(C)(=O)=O)cc3)n2)n1C(C)C
In short: as §1

[6] = compound: Cn1cc(-c2ccc3c(c2)CCN3C(=O)Cc2cccc(C(F)(F)F)c2)c2c(N)ncnc21
In short: as §1

[7] = compound: Cn1cc(-c2ccc3nnc(C(F)(F)c4ccc5ncccc5c4)n3n2)cn1
In short: as §1

tipifarnib = compound: Cn1cncc1[C@@](N)(c1ccc(Cl)cc1)c1ccc2c(c1)c(-c1cccc(Cl)c1)cc(=O)n2C [tipifarnib]
In short: as §1

mubritinib = compound: FC(F)(F)c1ccc(/C=C/c2nc(COc3ccc(CCCCn4ccnn4)cc3)co2)cc1 [mubritinib]
In short: as §1

bafetinib = compound: Cc1ccc(NC(=O)c2ccc(CN3CC[C@H](N(C)C)C3)c(C(F)(F)F)c2)cc1Nc1nccc(-c2cncnc2)n1 [bafetinib]
In short: as §1

[8] = compound: CS(=O)(=O)c1ccc(-c2cnc(N)c(C(=O)Nc3ccccc3)n2)cc1
In short: as §1

[9] = compound: C[C@@H]1COCCN1C2=NC(=NC(=C2)C3(CC3)S(=O)(=O)C)C4=C5C=CNC5=CC=C4
In short: as §1

Measured: log2 fold change

TMC6 (UniProt Q7Z403)
inactive: crizotinib -0.217 | [1] 0.036 | duvelisib -0.031 | gandotinib -0.012 | tozasertib -0.026 | [2] 0.016 | doramapimod 0.104 | ispinesib -0.104 | [3] 0.07 | nilotinib -0.187 | [4] 0.047 | dasatinib -0.003 | [5] 0.207 | [6] -0.172 | [7] -0.196 | tipifarnib 0.197 | mubritinib 0.049

TMEM98 (UniProt Q9Y2Y6)
inactive: ispinesib -0.171 | bafetinib 0.004 | nilotinib 0.126 | [4] -0.034 | [5] 0.122 | [7] -0.003 | tipifarnib 0.038 | mubritinib -0.195

TMEM69 (UniProt Q5SWH9)
inactive: crizotinib 0.056 | [1] -0.219 | gandotinib -0.09 | tozasertib 0.064 | doramapimod 0.025 | ispinesib 0.043 | bafetinib 0.009 | [3] -0.009 | nilotinib -0.015 | [4] 0.075 | [5] 0.007 | [6] 0.012 | [7] -0.138 | tipifarnib -0.026 | mubritinib -0.197

TMEM184B (UniProt Q9Y519)
inactive: [8] -0.037 | tozasertib -0.034 | bafetinib -0.105 | nilotinib 0.022 | [4] -0.064 | [5] -0.018 | tipifarnib 0.044 | mubritinib -0.008

TMEM260 (UniProt Q9NX78)
inactive: crizotinib -0.001 | duvelisib -0.055 | tozasertib 0.05 | [2] -0.1 | doramapimod -0.007 | dasatinib -0.182 | mubritinib 0.144

TMEM59 (UniProt Q9BXS4)
inactive: crizotinib 0.04 | [1] 0.144 | duvelisib 0.024 | gandotinib -0.098 | tozasertib 0.074 | [2] 0.048 | doramapimod 0.129 | ispinesib 0.411 | [3] -0.087 | nilotinib 0.019 | [4] -0.117 | dasatinib 0.043 | [5] 0.059 | [6] -0.04 | [7] -0.486 | tipifarnib 0.08 | mubritinib 0.033

TLE5 isoform 2 (UniProt Q08117)
inactive: [1] -0.062 | duvelisib 0.005 | gandotinib 0.034 | [2] 0.073 | ispinesib -0.023 | [3] -0.03 | nilotinib 0.045 | [4] 0.001 | dasatinib -0.063 | [5] 0.002 | [6] 0.041 | [7] 0.1 | tipifarnib -0.022 | mubritinib -0.014

TMEM134 (UniProt Q9H6X4)
inactive: crizotinib 0.034 | [9] -0.159 | gandotinib 0.011 | doramapimod -0.046 | ispinesib -0.099 | bafetinib -0.113 | [3] 0.011 | [7] 0.104 | mubritinib 0.027

TMEM181 (UniProt Q9P2C4)
inactive: crizotinib 0.194 | [1] -0.164 | duvelisib -0.147 | gandotinib 0.202 | tozasertib 0.039 | [2] -0.026 | doramapimod 0.029 | ispinesib -0.01 | bafetinib 0.048 | [3] -0.012 | dasatinib 0.169 | [6] -0.022 | [7] -0.049 | tipifarnib 0.066 | mubritinib 0.094

TMPO (UniProt G5E972)
inactive: gandotinib -0.017 | [3] -0.035 | mubritinib 0.005

TMEM106C (UniProt Q9BVX2)
inactive: [8] 0.06 | duvelisib 0.095 | [2] 0.025 | bafetinib 0 | nilotinib -0.278 | [4] -0.094 | dasatinib -0.206 | [5] -0.197 | tipifarnib 0.128

TNFAIP2 (UniProt Q03169)
inactive: [8] 0.125 | duvelisib 0.127 | tozasertib -0.069 | [2] -0.069 | bafetinib -0.139 | nilotinib -0.172 | [4] 0.143 | dasatinib 0.014 | [5] -0.004

TMCO6 isoform 2 (UniProt Q96DC7)
inactive: duvelisib 0.234 | gandotinib -0.008 | [2] 0.105 | [3] 0.004 | dasatinib -0.34

TLNRD1 (UniProt Q9H1K6)
inactive: [1] -0.092 | tozasertib -0.037 | [6] -0.099

TMEM101 (UniProt Q96IK0)
inactive: crizotinib -0.052 | [1] -0.019 | duvelisib 0.089 | gandotinib -0.229 | tozasertib 0.006 | [2] -0.057 | doramapimod -0.013 | ispinesib -0.165 | bafetinib 0.016 | [3] 0.027 | nilotinib -0.118 | [4] 0.061 | dasatinib -0.015 | [5] -0.063 | [6] -0.087 | [7] -0.025 | tipifarnib -0.076 | mubritinib 0.036

TMCC3 (UniProt Q9ULS5)
inactive: [8] 0.018 | ispinesib -0.023 | bafetinib 0.031 | nilotinib -0.232 | [4] 0.005 | [5] -0.279 | [7] 0.046 | mubritinib 0.113

TMEM120B (UniProt A0PK00)
inactive: crizotinib 0.015 | [1] -0.201 | duvelisib -0.103 | gandotinib -0.013 | tozasertib -0.013 | [2] -0.093 | doramapimod -0.055 | ispinesib 0.156 | [3] 0.068 | nilotinib 0.015 | [4] 0.058 | dasatinib -0.166 | [5] 0.076 | [6] 0.14 | [7] 0.049 | mubritinib -0.086

TMEM79 (UniProt Q9BSE2)
inactive: tozasertib -0.193 | bafetinib -0.047 | nilotinib -0.069 | [4] -0.094 | [5] 0.065

TM7SF2 (UniProt O76062)
inactive: [8] -0.044 | [1] 0.028 | [2] 0.028 | ispinesib -0.451 | nilotinib -0.113 | [4] -0.059 | dasatinib -0.25 | [5] 0.018 | [6] 0.035 | [7] 0.046 | tipifarnib -0.067

TMEM44 (UniProt Q2T9K0)
inactive: crizotinib 0.089 | doramapimod 0.003 | nilotinib 0.046 | [4] -0.172 | [5] -0.014

TMED8 (UniProt Q6PL24)
inactive: crizotinib -0.106 | [1] 0.061 | duvelisib -0.006 | gandotinib -0.007 | tozasertib 0.041 | [2] 0.225 | doramapimod 0.194 | ispinesib 0.082 | bafetinib 0.115 | [3] 0.046 | nilotinib -0.197 | [4] 0.01 | dasatinib -0.067 | [5] 0.046 | [6] 0.001 | [7] -0.028 | tipifarnib -0.027 | mubritinib 0.02

TMEM175 (UniProt Q9BSA9)
inactive: duvelisib 0.128 | tozasertib 0.028 | [2] 0.139 | dasatinib -0.139 | tipifarnib 0.158

TMEM94 isoform 2 (UniProt Q12767)
inactive: duvelisib 0.221 | [2] -0.055 | dasatinib -0.131

TMEM41B (UniProt Q5BJD5)
inactive: crizotinib -0.012 | [9] 0.121 | [1] -0.031 | duvelisib -0.046 | gandotinib -0.051 | tozasertib -0.041 | [2] -0.122 | doramapimod 0.101 | ispinesib -0.268 | bafetinib -0.177 | [3] 0.053 | nilotinib 0.051 | [4] -0.008 | dasatinib 0.011 | [5] -0.019 | [6] 0.016 | [7] 0 | tipifarnib 0.023 | mubritinib 0.032

TMEM129
inactive: duvelisib 0.183 | tozasertib -0.066 | [2] -0.022 | nilotinib -0.239 | [4] -0.096 | dasatinib 0.13 | [5] 0.08 | tipifarnib -0.038

TMEM104 (UniProt Q8NE00)
inactive: crizotinib -0.145 | [9] 0.012 | [1] 0.009 | gandotinib -0.087 | [2] -0.049 | doramapimod 0.112 | ispinesib -0.34 | [3] 0.172 | nilotinib 0.019 | [4] -0.003 | dasatinib 0.009 | [5] -0.013 | [6] 0.066 | [7] 0.095 | tipifarnib 0.035 | mubritinib -0.089

TMEM35B (UniProt Q8NCS4)
inactive: crizotinib -0.182 | duvelisib -0.361 | gandotinib -0.096 | tozasertib -0.168 | [2] 0.169 | doramapimod -0.099 | bafetinib -0.119 | [3] 0.016 | nilotinib 0.115 | [4] -0.149 | dasatinib -0.028 | [5] 0 | mubritinib 0.019

TMEM131 (UniProt Q92545)
inactive: [8] 0.239 | gandotinib 0 | tozasertib -0.152 | [3] -0.09

Retrieved one by one from the entries so far, 2 records:
TMEM131 (UniProt Q92545)
inactive: [8] 0.239 | gandotinib 0 | tozasertib -0.152 | [3] -0.09

TMEM129
inactive: duvelisib 0.183 | tozasertib -0.066 | [2] -0.022 | nilotinib -0.239 | [4] -0.096 | dasatinib 0.13 | [5] 0.08 | tipifarnib -0.038

Further entries

TMEM127 (UniProt O75204)
inactive: [1] 0.058 | tozasertib -0.055 | nilotinib 0.015 | [4] -0.072 | [5] 0.1 | [6] -0.017

TMEM273 isoform 2 (UniProt Q5T292)
inactive: tozasertib -0.218 | nilotinib -0.177 | [4] -0.053 | [5] 0.032

TNFAIP3 (UniProt P21580)
inactive: crizotinib 0 | [9] -0.019 | [1] 0.056 | gandotinib -0.046 | doramapimod 0.003 | ispinesib 0.027 | bafetinib -0.028 | [3] -0.044 | nilotinib 0.049 | [4] -0.105 | [5] -0.07 | [6] -0.011 | [7] -0.029 | tipifarnib -0.005 | mubritinib -0.099

TNFAIP1 (UniProt Q13829)
inactive: crizotinib 0.053 | [9] 0.174 | [1] -0.047 | duvelisib -0.149 | tozasertib -0.023 | [2] 0.196 | doramapimod -0.036 | ispinesib 0.244 | bafetinib -0.003 | nilotinib -0.009 | [4] -0.019 | dasatinib -0.153 | [5] -0.015 | [6] 0.041 | [7] 0.003 | tipifarnib 0.154 | mubritinib 0.11

TMEM8A (UniProt Q9HCN3)
inactive: [8] 0.425 | [1] 0.049 | gandotinib 0.014 | [2] -0.095 | ispinesib -0.065 | bafetinib -0.054 | [3] 0.096 | nilotinib -0.033 | [4] 0.071 | dasatinib -0.409 | [5] 0.019 | [6] -0.046 | [7] 0 | tipifarnib 0.047 | mubritinib -0.001

TMSB4X (UniProt P62328)
inactive: crizotinib 0.236 | [9] -0.426 | [1] 0.146 | duvelisib -0.36 | [2] -0.345 | doramapimod -0.778 | ispinesib -0.113 | bafetinib -0.82 | nilotinib -0.05 | [4] 0.121 | dasatinib 0.225 | [5] -0.496 | [6] -0.283 | [7] -0.117 | tipifarnib 0.527 | mubritinib 0.311
